# From the supplement of paper PMC8728848
# The list shows a part of the results.
# How the values were obtained:
# Assay in all cases: glycan array binding signal (z-score within array); higher = stronger binding
# Details in all cases: glycan notation: IUPAC condensed, linker removed
# [1] = molecular target: Neu5Ac(a2-3)Gal(b1-4)GlcNAc(b1-3)[Neu5Ac(a2-3)Gal(b1-4)GlcNAc(b1-6)]GalNAc
# Procedure, shortened: (§1)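 The binding signal is a Z-score computed within each array. Data were drawn from 3228 arrays in the Consortium for Functional Glycomics database, restricted to those with a known protein sequence. Scores were averaged over arrays of the same protein sequence at different concentrations or buffers, and over linkers, and negative values can be taken as non-binding.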
# [2] = molecular target: Neu5Ac(a2-3)Gal(b1-4)GlcNAc(b1-6)GalNAc
# Procedure, shortened: as §1
# [3] = molecular target: Neu5Ac(a2-3)Gal(b1-4)GlcNAc(b1-6)[Gal(b1-3)]GalNAc
# Procedure, shortened: as §1
# [4] = molecular target: Neu5Ac(a2-3)Gal(b1-4)GlcNAc(b1-6)[Neu5Ac(a2-3)Gal(b1-3)]GalNAc
# Procedure, shortened: as §1
# [5] = molecular target: Neu5Ac(a2-3)Gal(b1-4)GlcNAc6S
# Procedure, shortened: as §1
# [6] = molecular target: Neu5Ac(a2-3)Gal(b1-4)[Fuc(a1-3)]GlcNAc
# Procedure, shortened: as §1
# [7] = molecular target: Neu5Ac(a2-3)Gal(b1-4)[Fuc(a1-3)]GlcNAc(b1-2)Man
# Procedure, shortened: as §1
# [8] = molecular target: Neu5Ac(a2-3)Gal(b1-4)[Fuc(a1-3)]GlcNAc(b1-3)Gal
# Procedure, shortened: as §1
# [9] = molecular target: Neu5Ac(a2-3)Gal(b1-4)[Fuc(a1-3)]GlcNAc(b1-3)Gal(b1-4)GlcNAc
# Procedure, shortened: as §1
# [10] = molecular target: Neu5Ac(a2-3)Gal(b1-4)[Fuc(a1-3)]GlcNAc(b1-3)Gal(b1-4)[Fuc(a1-3)]GlcNAc(b1-3)Gal(b1-4)[Fuc(a1-3)]GlcNAc
# Procedure, shortened: as §1
# [11] = molecular target: Neu5Ac(a2-3)Gal(b1-4)[Fuc(a1-3)]GlcNAc(b1-3)GalNAc
# Procedure, shortened: as §1
# [12] = molecular target: Neu5Ac(a2-3)Gal(b1-4)[Fuc(a1-3)]GlcNAc(b1-6)[Gal(b1-3)]GalNAc
# Procedure, shortened: as §1
# [13] = molecular target: Neu5Ac(a2-3)Gal(b1-4)[Fuc(a1-3)]GlcNAc(b1-6)[Neu5Ac(a2-3)Gal(b1-3)]GalNAc
# Procedure, shortened: as §1
# [14] = molecular target: Neu5Ac(a2-3)Gal(b1-4)[Fuc(a1-3)]GlcNAc6S
# Procedure, shortened: as §1
# [15] = molecular target: Neu5Ac(a2-3)Gal6S(b1-4)GlcNAc
# Procedure, shortened: as §1
# [16] = molecular target: Neu5Ac(a2-3)Gal6S(b1-4)[Fuc(a1-3)]GlcNAc
# Procedure, shortened: as §1
# [17] = molecular target: Neu5Ac(a2-3)GalNAc
# Procedure, shortened: as §1
# [18] = molecular target: Neu5Ac(a2-3)GalNAc(b1-4)GlcNAc
# Procedure, shortened: as §1
# [19] = molecular target: Neu5Ac(a2-3)[GalNAc(b1-4)]Gal(b1-4)Glc
# Procedure, shortened: as §1
# [20] = molecular target: Neu5Ac(a2-3)[GalNAc(b1-4)]Gal(b1-4)GlcNAc
# Procedure, shortened: as §1
# [21] = molecular target: Neu5Ac(a2-3)[GalNAc(b1-4)]Gal(b1-4)GlcNAc(b1-3)GalNAc
# Procedure, shortened: as §1
# [22] = molecular target: Neu5Ac(a2-3)[Neu5Ac(a2-6)]GalNAc
# Procedure, shortened: as §1
# [23] = molecular target: Neu5Ac(a2-6)Gal
# Procedure, shortened: as §1
# [24] = molecular target: Neu5Ac(a2-6)Gal(b1-3)GlcNAc(b1-3)[Gal(b1-4)GlcNAc(b1-6)]Gal(b1-4)Glc
# Procedure, shortened: as §1
# [25] = molecular target: Neu5Ac(a2-6)Gal(b1-4)Glc
# Procedure, shortened: as §1
# [26] = molecular target: Neu5Ac(a2-6)Gal(b1-4)GlcNAc
# Procedure, shortened: as §1
# [27] = molecular target: Neu5Ac(a2-6)Gal(b1-4)GlcNAc(b1-2)Man
# Procedure, shortened: as §1
# [28] = molecular target: Neu5Ac(a2-6)Gal(b1-4)GlcNAc(b1-2)Man(a1-3)Man(b1-4)GlcNAc(b1-4)GlcNAc
# Procedure, shortened: as §1
# [29] = molecular target: Neu5Ac(a2-6)Gal(b1-4)GlcNAc(b1-2)Man(a1-3)[Gal(b1-4)GlcNAc(b1-2)Man(a1-6)]Man(b1-4)GlcNAc(b1-4)GlcNAc
# Procedure, shortened: as §1
# [30] = molecular target: Neu5Ac(a2-6)Gal(b1-4)GlcNAc(b1-2)Man(a1-3)[GlcNAc(b1-2)Man(a1-6)]Man(b1-4)GlcNAc(b1-4)GlcNAc
# Procedure, shortened: as §1
binder,measurement,setting,value
"SHCBP1-GST (Homo sapiens), Q8NEM2 (protein) MADGSLTGGGLEAAAMAPERMGWAVEQELASLEKGLFQDEDSCSDCSYRDKPGSSLQSFMPEGKTFFPEIFQTNQLLFYERFRAYQDYILADCKASEVQEFTAEFLEKVLEPSGWRAVWHTNVFKVLVEITDVDFAALKAVVRLAEPYLCDSQVSTFTMECMKELLDLKEHRLPLQELWVVFDDSGVFDQTALAIEHVRFFYQNIWRSWDEEEEDEYDYFVRCVEPRLRLHYDILEDRVPSGLIVDYHNLLSQCEESYRKFLNLRSSLSNCNSDSEQENISMVEGLKLYSEMEQLKQKLKLIENPLLRYVFGYQKNSNIQAKGVRSSGQKITHVVSSTMMAGLLRSLLTDRLCQEPGEEEREIQFHSDPLSAINACFEGDTVIVCPGHYVVHGTFSIADSIELEGYGLPDDIVIEKRGKGDTFVDCTGADIKISGIKFVQHDAVEGILIVHRGKTTLENCVLQCETTGVTVRTSAEFLMKNSDLYGAKGAGIEIYPGSQCTLSDNGIHHCKEGILIKDFLDEHYDIPKISMVNNIIHNNEGYGVVLVKPTIFSDLQENAEDGTEENKALKIQTSGEPDVAERVDLEELIECATGKMELCARTDPSEQVEGNCEIVNELIAASTQKGQIKKKRLSELGITQADDNLMSQEMFVGIVGNQFKWNGKGSFGTFLF",glycan array binding signal (z-score),[1],0.316
same,glycan array binding signal (z-score),[2],1.06
same,glycan array binding signal (z-score),[3],-0.811
same,glycan array binding signal (z-score),[4],-0.665
same,glycan array binding signal (z-score),[5],-0.159
same,glycan array binding signal (z-score),[6],-0.388
same,glycan array binding signal (z-score),[7],-0.022
same,glycan array binding signal (z-score),[8],-0.924
same,glycan array binding signal (z-score),[9],-0.055
same,glycan array binding signal (z-score),[10],-0.354
same,glycan array binding signal (z-score),[11],0.726
same,glycan array binding signal (z-score),[12],-0.35
same,glycan array binding signal (z-score),[13],-0.607
same,glycan array binding signal (z-score),[14],-0.641
same,glycan array binding signal (z-score),[15],0.329
same,glycan array binding signal (z-score),[16],-0.518
same,glycan array binding signal (z-score),[17],-0.122
same,glycan array binding signal (z-score),[18],-0.159
same,glycan array binding signal (z-score),[19],-0.047
same,glycan array binding signal (z-score),[20],0.08
same,glycan array binding signal (z-score),[21],0.194
same,glycan array binding signal (z-score),[22],0.17
same,glycan array binding signal (z-score),[23],-0.258
same,glycan array binding signal (z-score),[24],-0.691
same,glycan array binding signal (z-score),[25],-0.263
same,glycan array binding signal (z-score),[26],-0.229
same,glycan array binding signal (z-score),[27],-0.388
same,glycan array binding signal (z-score),[28],-0.066
same,glycan array binding signal (z-score),[29],0.542
same,glycan array binding signal (z-score),[30],-0.864

# Laid out differently: entries from further up
binder	measurement	setting	value
SHCBP1-GST (Homo sapiens), Q8NEM2 (protein) MADGSLTGGGLEAAAMAPERMGWAVEQELASLEKGLFQDEDSCSDCSYRDKPGSSLQSFMPEGKTFFPEIFQTNQLLFYERFRAYQDYILADCKASEVQEFTAEFLEKVLEPSGWRAVWHTNVFKVLVEITDVDFAALKAVVRLAEPYLCDSQVSTFTMECMKELLDLKEHRLPLQELWVVFDDSGVFDQTALAIEHVRFFYQNIWRSWDEEEEDEYDYFVRCVEPRLRLHYDILEDRVPSGLIVDYHNLLSQCEESYRKFLNLRSSLSNCNSDSEQENISMVEGLKLYSEMEQLKQKLKLIENPLLRYVFGYQKNSNIQAKGVRSSGQKITHVVSSTMMAGLLRSLLTDRLCQEPGEEEREIQFHSDPLSAINACFEGDTVIVCPGHYVVHGTFSIADSIELEGYGLPDDIVIEKRGKGDTFVDCTGADIKISGIKFVQHDAVEGILIVHRGKTTLENCVLQCETTGVTVRTSAEFLMKNSDLYGAKGAGIEIYPGSQCTLSDNGIHHCKEGILIKDFLDEHYDIPKISMVNNIIHNNEGYGVVLVKPTIFSDLQENAEDGTEENKALKIQTSGEPDVAERVDLEELIECATGKMELCARTDPSEQVEGNCEIVNELIAASTQKGQIKKKRLSELGITQADDNLMSQEMFVGIVGNQFKWNGKGSFGTFLF	glycan array binding signal (z-score)	[6]	-0.388
same	glycan array binding signal (z-score)	[7]	-0.022
